Assay results: article doi:10.1101/216713
Where two headings read alike, the source gives them in different places. No constants are given. Whether binding was seen depends on the method and setting. Some binding calls cover weakened binding; strength is not graded here. One block for each molecule: values may come before it.

Protein sequences, listed by entry. Tags and fused reporters are not part of them.
UniProt P0CX29: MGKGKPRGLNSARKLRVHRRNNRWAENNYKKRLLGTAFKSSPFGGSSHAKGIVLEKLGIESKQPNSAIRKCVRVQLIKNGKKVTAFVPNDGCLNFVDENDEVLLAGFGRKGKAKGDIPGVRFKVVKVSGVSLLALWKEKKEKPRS
UniProt P40160: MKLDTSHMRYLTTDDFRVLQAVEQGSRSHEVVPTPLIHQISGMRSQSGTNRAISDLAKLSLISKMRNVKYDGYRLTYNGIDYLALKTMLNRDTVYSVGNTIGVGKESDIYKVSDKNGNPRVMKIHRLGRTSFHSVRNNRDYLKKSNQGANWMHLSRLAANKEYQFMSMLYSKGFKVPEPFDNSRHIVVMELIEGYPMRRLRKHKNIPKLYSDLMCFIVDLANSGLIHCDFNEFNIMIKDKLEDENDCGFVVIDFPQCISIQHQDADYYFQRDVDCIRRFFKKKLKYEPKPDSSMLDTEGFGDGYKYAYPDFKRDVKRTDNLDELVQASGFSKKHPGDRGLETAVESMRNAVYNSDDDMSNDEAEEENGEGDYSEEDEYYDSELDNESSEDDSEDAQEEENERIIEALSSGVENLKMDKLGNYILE

Assays:
Test in all cases: cryo-EM structure
[1] = target: T1, ribosomal protein uS13 (S. cerevisiae (endogenous in the yeast strain)) (UniProt P0CX55)
T1 sequence: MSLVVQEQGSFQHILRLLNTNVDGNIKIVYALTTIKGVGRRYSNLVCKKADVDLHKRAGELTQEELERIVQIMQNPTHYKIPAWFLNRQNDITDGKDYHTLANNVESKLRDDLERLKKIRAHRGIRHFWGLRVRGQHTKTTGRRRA

[2] = target: T2, ribosomal protein uS19 (S. cerevisiae (endogenous in the yeast strain)) (UniProt Q01855)
T2 sequence: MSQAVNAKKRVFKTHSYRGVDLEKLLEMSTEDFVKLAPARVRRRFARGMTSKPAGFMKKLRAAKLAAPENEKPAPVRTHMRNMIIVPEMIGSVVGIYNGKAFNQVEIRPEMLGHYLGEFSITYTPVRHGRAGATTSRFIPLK

[3] = target: T3, ribosomal protein uS3 (S. cerevisiae (endogenous in the yeast strain)), P05750; conditions: remark: other sources report otherwise
T3 chain: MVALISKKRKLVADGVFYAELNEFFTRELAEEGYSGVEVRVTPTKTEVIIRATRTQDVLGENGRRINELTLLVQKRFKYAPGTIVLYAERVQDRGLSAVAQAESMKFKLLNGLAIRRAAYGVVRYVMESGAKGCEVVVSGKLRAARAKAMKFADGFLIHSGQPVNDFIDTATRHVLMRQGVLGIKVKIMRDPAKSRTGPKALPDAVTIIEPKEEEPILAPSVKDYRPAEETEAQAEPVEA

[4] = target: T4, Enp1 (S. cerevisiae (endogenous in the yeast strain)) (UniProt P38333)
T4 sequence: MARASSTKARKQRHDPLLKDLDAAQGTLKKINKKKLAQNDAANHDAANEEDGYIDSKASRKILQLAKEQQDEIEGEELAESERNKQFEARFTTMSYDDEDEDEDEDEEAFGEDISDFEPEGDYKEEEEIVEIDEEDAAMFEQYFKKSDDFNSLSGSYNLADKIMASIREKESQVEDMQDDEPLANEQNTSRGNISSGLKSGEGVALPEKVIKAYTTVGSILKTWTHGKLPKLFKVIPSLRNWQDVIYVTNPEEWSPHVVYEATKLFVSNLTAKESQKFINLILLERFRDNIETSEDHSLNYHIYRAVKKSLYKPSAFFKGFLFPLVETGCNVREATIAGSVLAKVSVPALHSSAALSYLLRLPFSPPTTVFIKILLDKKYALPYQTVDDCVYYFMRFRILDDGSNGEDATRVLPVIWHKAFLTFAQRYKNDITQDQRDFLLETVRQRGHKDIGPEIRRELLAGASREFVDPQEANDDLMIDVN

[5] = target: T1, ribosomal protein uS13 (S. cerevisiae (endogenous in the yeast strain)); remark: listed apart in the source
[6] = target: T2, ribosomal protein uS19 (S. cerevisiae (endogenous in the yeast strain)); remark: listed apart in the source
[7] = target: ribosomal protein uS12 (S. cerevisiae (endogenous in the yeast strain)) (UniProt P0CX29)
[8] = target: Rio2 (S. cerevisiae (endogenous in the yeast strain)) (UniProt P40160)

binding [1]: binds
binding [2]: binds
Molecule: Rio2 (from UniProt P40160 1-425) (enzyme)

binding [5]: binds
binding [6]: binds
binding [7]: binds
binding [8]: binds
B3: Tsr1 (protein, UniProt Q07381 1-788)
chain: MAGHSHRSSLKNGHKSYKSKHASKGALKRLYKGKVEKEPVGTGKPDKQVSKLQRKNKAKQLRAQRILDSIENRKLFEGKNGAAKIITIVPLVNDLDPLDILYKLLKCADDEGIMVQEVDSKRIFNVHIKKFKSNLKIIIPDMTNFLNILDCAKVADFVVFGLSGVQEVDEEFGEQIIRALELQGIASYIGVISNLSAVHEKEKFQLDVKQSLESYFKHFFPSEERVYNLEKNSDALNVLRTLCQRLPRSINWRDNRGYVVADFVDFVETSPDSGDLVIEGTVRGIGFNANRLVHIPDFGDFQLNKIEKISESSQKRKIIKEKATDSLSLELDLQTVFESNMNRDTLDEYAPEGTEDWSDYDEDFEYDGLTTARYDDHGFLPGREQTSKKAAVPKGTSDYQAKWYLDDVIDANEEEEAEQTNGKDETMMEIDDEMMVEQDNEEVAGDEEYDIEDNEGFEELSPEEEERQLREFRDMEKEDREFPDEIELEPSESAIERLKRYRGLKNLYNCDWQVDEKDPSSPAEWKRLLRIGNYKNTKNRIIKETKNEAQAIAGDRIRMFIRFPKFLLEKIQDPKQLLFAVYGLLLHEHKNAVVNFSLQRWEQYDKPVPSQEPIVVQYGVRRYTIQPLFSQGSNSPNNVHKYERFLHPDTVSVATCIAPVDFTQSPAIFFKPSPTDAKNIELIGHGTFLNADHSRILAKRAILTGHPFRFHKTVVTVRYMFFRPEDVEWFKSIPLFTKSGRSGFIKESLGTHGYFKATFDGKLSAQDVVAMSLYKRMWPMPSLPWNGM

Continued, molecule first:

B1: Enp1, P38333 1-483 (protein)
chain: T4 sequence
binding [3]: binds

B2: Ltv1 (protein, UniProt P34078 1-463)
chain: MSKKFSSKNSQRYVVVHRPHDDPSFYDTDASAHVLVPVSNPNKTSPEADLRKKDVSSTKPKGRRAHVGEAALYGINFDDSEYDYTQHLKPIGLDPENSIFIASKGNEQKVEKKNIEDLFIEPKYRRDEIEKDDALPVFQRGMAKPEYLLHQQDTTDEIRGFKPDMNPALREVLEALEDEAYVVNDDVVVEDISKKTQLQGDNYGEEEKEDDIFAQLLGSGEAKDEDEFEDEFDEWDIDNVENFEDENYVKEMAQFDNIENLEDLENIDYQADVRRFQKDNSILEKHNSDDEFSNAGLDSVNPSEEEDVLGELPSIQDKSKTGKKKRKSRQKKGAMSDVSGFSMSSSAIARTETMTVLDDQYDQIINGYENYEEELEEDEEQNYQPFDMSAERSDFESMLDDFLDNYELESGGRKLAKKDKEIERLKEAADEVSKGKLSQRRNRERQEKKKLEKVTNTLSSLKF
binding [4]: binds
